Source: PMC6721280
Results are given in words; binding and its absence hold for the method and conditions named. Binding seen in cells or lysates may run through a third protein. Some entries that bind do so weakly or less than the wild type.

The chains behind the UniProt entries cited, without tags or fusion partners.
UniProt P53350: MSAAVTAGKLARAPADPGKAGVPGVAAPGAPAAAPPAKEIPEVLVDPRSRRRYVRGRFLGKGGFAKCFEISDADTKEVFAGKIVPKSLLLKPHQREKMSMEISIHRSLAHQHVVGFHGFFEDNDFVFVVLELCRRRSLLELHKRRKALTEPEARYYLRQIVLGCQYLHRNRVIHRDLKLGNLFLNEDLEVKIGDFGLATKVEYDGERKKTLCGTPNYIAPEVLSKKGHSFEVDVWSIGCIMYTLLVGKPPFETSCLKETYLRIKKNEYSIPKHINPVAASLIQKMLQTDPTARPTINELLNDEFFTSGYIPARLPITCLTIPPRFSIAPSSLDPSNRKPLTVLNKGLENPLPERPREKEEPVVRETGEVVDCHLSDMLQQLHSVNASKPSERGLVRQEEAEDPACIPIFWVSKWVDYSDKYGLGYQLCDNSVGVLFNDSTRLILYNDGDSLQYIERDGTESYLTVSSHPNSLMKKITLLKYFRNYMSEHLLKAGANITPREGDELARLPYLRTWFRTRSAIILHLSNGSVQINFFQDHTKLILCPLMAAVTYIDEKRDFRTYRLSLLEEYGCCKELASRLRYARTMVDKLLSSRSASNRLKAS

Biological target: T1, endogenous NIPA (human (endogenous in DEL, Mac-1, Karpas and SUDHL-1)) (UniProt Q86WB0)
T1 sequence: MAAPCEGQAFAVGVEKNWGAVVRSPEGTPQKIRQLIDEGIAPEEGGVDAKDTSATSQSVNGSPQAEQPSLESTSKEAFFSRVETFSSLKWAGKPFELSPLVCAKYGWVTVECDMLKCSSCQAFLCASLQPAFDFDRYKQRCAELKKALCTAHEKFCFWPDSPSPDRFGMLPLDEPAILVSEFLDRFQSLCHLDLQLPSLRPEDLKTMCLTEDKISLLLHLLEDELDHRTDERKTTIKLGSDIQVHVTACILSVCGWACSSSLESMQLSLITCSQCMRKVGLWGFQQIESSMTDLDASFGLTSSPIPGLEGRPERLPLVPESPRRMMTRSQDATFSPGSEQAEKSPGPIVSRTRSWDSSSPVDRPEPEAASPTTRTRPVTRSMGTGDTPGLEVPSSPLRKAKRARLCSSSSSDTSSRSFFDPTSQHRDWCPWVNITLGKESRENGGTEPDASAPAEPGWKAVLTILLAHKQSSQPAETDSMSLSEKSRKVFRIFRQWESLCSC
Assay: co-IP; endogenous proteins in the ALK-positive cell lines Karpas and SUDHL-1; which protein was precipitated is not told

- binding: binds
Substance: Polo-like kinase 1 (PLK1) (from UniProt P53350 1-603) (enzyme)
